Some entries share one result that the patent states for a list of compounds.
tested on: E. coli ATCC 10536; assay: Bacterial contact time (BCT) test of perfume ingredients in 20% ethanol solutions (EN-1276 based); type: cell-based, Escherichia coli; details: less than or equal to 0.1% (w/v) perfume ingredient in ethanol solution; contact time 45 s

SMILES | bactericidal activity in ethanol solutions
CC/C=C/CC(=O)OCC1CC1 [cyclopropylmethyl (3E)-3-hexenoate] | high bactericidal activity (at least a 5.5 log reduction in bacterial viability at less than or equal to 0.1% (w/v) of the bactericidal perfume ingredients in ethanol solution)
CCCCCC(=O)OCC [ethyl hexanoate] | high bactericidal activity (at least a 5.5 log reduction in bacterial viability at less than or equal to 0.1% (w/v) of the bactericidal perfume ingredients in ethanol solution)
CC12CCC(C1)C(C)(C)C2=O (stereo not shown) [1,3,3-trimethylbicyclo[2.2.1]heptan-2-one] | high bactericidal activity (at least a 5.5 log reduction in bacterial viability at less than or equal to 0.1% (w/v) of the bactericidal perfume ingredients in ethanol solution)
O=C1CC/C=C/CC/C=C/CCC1 [(4E,8E)-4,8-cyclododecadien-1-one] | high bactericidal activity (at least a 5.5 log reduction in bacterial viability at less than or equal to 0.1% (w/v) of the bactericidal perfume ingredients in ethanol solution)
CC/C=C\CC(=O)OCC1CC1 [cyclopropylmethyl (3Z)-3-hexenoate] | high bactericidal activity (at least a 5.5 log reduction in bacterial viability at less than or equal to 0.1% (w/v) of the bactericidal perfume ingredients in ethanol solution)
CC(C)=CCCC(C)CCO (stereo not shown) [3,7-dimethyl-6-octen-1-ol] | high bactericidal activity (at least a 5.5 log reduction in bacterial viability at less than or equal to 0.1% (w/v) of the bactericidal perfume ingredients in ethanol solution)
C=C(C)C1CC=C(CO)CC1 (stereo not shown) [1,8-p-menthadien-7-ol] | high bactericidal activity (at least a 5.5 log reduction in bacterial viability at less than or equal to 0.1% (w/v) of the bactericidal perfume ingredients in ethanol solution)
CC/C(=C\CC1CC=C(C)C1(C)C)CO (stereo not shown) [(2E)-2-ethyl-4-[2,2,3-trimethyl-3-cyclopenten-1-yl]-2-buten-1-ol] | high bactericidal activity (at least a 5.5 log reduction in bacterial viability at less than or equal to 0.1% (w/v) of the bactericidal perfume ingredients in ethanol solution)
O=C1CC/C=C/CC/C=C\CCC1 [(4E,8Z)-4,8-cyclododecadien-1-one] | high bactericidal activity (at least a 5.5 log reduction in bacterial viability at less than or equal to 0.1% (w/v) of the bactericidal perfume ingredients in ethanol solution)
CC1(C)C2CCC1(C)C(O)C2 (stereo not shown) [1,7,7-trimethylbicyclo[2.2.1]heptan-2-ol] | high bactericidal activity (at least a 5.5 log reduction in bacterial viability at less than or equal to 0.1% (w/v) of the bactericidal perfume ingredients in ethanol solution)
CC/C=C\CC/C=C/C=O [(2E,6Z)-2,6-nonadienal] | high bactericidal activity (at least a 5.5 log reduction in bacterial viability at less than or equal to 0.1% (w/v) of the bactericidal perfume ingredients in ethanol solution)
CCCCCC/C=C\C=O [(Z)-2-nonenal] | high bactericidal activity (at least a 5.5 log reduction in bacterial viability at less than or equal to 0.1% (w/v) of the bactericidal perfume ingredients in ethanol solution)
C/C(C=O)=C\c1ccccc1 [(2E)-2-methyl-3-phenyl-2-propenal] | high bactericidal activity (at least a 5.5 log reduction in bacterial viability at less than or equal to 0.1% (w/v) of the bactericidal perfume ingredients in ethanol solution)
C/C=C/c1ccc(OC)c(OC)c1 [1,2-dimethoxy-4-[(1E)-1-propen-1-yl]benzene] | high bactericidal activity (at least a 5.5 log reduction in bacterial viability at less than or equal to 0.1% (w/v) of the bactericidal perfume ingredients in ethanol solution)
CC/C=C\CCCCCO [(Z)-6-nonen-1-ol] | high bactericidal activity (at least a 5.5 log reduction in bacterial viability at less than or equal to 0.1% (w/v) of the bactericidal perfume ingredients in ethanol solution)
CCC/C=C(\C)C(=O)OC [methyl (2E)-2-methyl-2-hexenoate] | high bactericidal activity (at least a 5.5 log reduction in bacterial viability at less than or equal to 0.1% (w/v) of the bactericidal perfume ingredients in ethanol solution)
